Test results: the supplement of paper PMC7661543
The effect of the compound repeats well; differences between the knockouts mostly do not.

System: SKBR3
Assay: relative cell number vs DMSO control (72 h) (% of DMSO); higher = less growth inhibition (more cells)
Procedure: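 QMAP-Seq: a pool of 5 breast cancer cell lines (ZR-75-1, SKBR3, HCC-38, MDA-MB-231, BT-20), each carrying 12 doxycycline-inducible Cas9 sgRNA perturbations (11 knockouts plus non-targeting sgNT), was treated with compounds for 72 h at four 10-fold doses (10 nM-10 uM or 1 nM-1 uM range). Barcodes were amplified and sequenced, and cell number was interpolated from 293T spike-in standard curves. The result is expressed as % of the median of DMSO wells. Two biological replicates.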

COc1cc(C(=O)N2CCC(N3CCN(C)CC3)CC2)ccc1Nc1ncc2c(n1)N(C)c1ccccc1C(=O)N2C [LRRK2IN1]
Details	relative cell number
sgRNA knockout: sgATF3, 10 nM	125
sgRNA knockout: sgATF3, 100 nM	109
sgRNA knockout: sgATF3, 1000 nM	80.9
sgRNA knockout: sgATF3, 10000 nM	41.8
sgRNA knockout: sgATF4, 10 nM	109
sgRNA knockout: sgATF4, 100 nM	85.5
sgRNA knockout: sgATF4, 1000 nM	67.1
sgRNA knockout: sgATF4, 10000 nM	37.1
sgRNA knockout: sgATF6, 10 nM	96.9
sgRNA knockout: sgATF6, 100 nM	77.9
sgRNA knockout: sgATF6, 1000 nM	61.5
sgRNA knockout: sgATF6, 10000 nM	37.1
sgRNA knockout: sgATG7, 10 nM	142
sgRNA knockout: sgATG7, 100 nM	101
sgRNA knockout: sgATG7, 1000 nM	78.8
sgRNA knockout: sgATG7, 10000 nM	26.1
sgRNA knockout: sgERN1, 10 nM	118
sgRNA knockout: sgERN1, 100 nM	89.7
sgRNA knockout: sgERN1, 1000 nM	66.9
sgRNA knockout: sgERN1, 10000 nM	43.4
sgRNA knockout: sgHSF1, 10 nM	123
sgRNA knockout: sgHSF1, 100 nM	85.55
sgRNA knockout: sgHSF1, 1000 nM	75.8
sgRNA knockout: sgHSF1, 10000 nM	32.1
sgRNA knockout: sgHSF2, 10 nM	117
sgRNA knockout: sgHSF2, 100 nM	89.1
sgRNA knockout: sgHSF2, 1000 nM	67.8
sgRNA knockout: sgHSF2, 10000 nM	34.5
sgRNA knockout: sgKEAP1, 10 nM	112
sgRNA knockout: sgKEAP1, 100 nM	82.9
sgRNA knockout: sgKEAP1, 1000 nM	66.5
sgRNA knockout: sgKEAP1, 10000 nM	37
sgRNA knockout: sgNFE2L2, 10 nM	99.3
sgRNA knockout: sgNFE2L2, 100 nM	91
sgRNA knockout: sgNFE2L2, 1000 nM	57.5
sgRNA knockout: sgNFE2L2, 10000 nM	40.9
sgRNA knockout: sgSLC35F2, 10 nM	84.6
sgRNA knockout: sgSLC35F2, 100 nM	110
sgRNA knockout: sgSLC35F2, 1000 nM	67.4
sgRNA knockout: sgSLC35F2, 10000 nM	30.1
sgRNA knockout: sgXBP1, 10 nM	111
sgRNA knockout: sgXBP1, 100 nM	113
sgRNA knockout: sgXBP1, 1000 nM	57.4
sgRNA knockout: sgXBP1, 10000 nM	32.7

N#Cc1ccc(C(c2ccc(C#N)cc2)n2cncn2)cc1 [Letrozole]
Details	relative cell number
sgRNA knockout: sgATF3, 1 nM	106
sgRNA knockout: sgATF3, 10 nM	86.2
sgRNA knockout: sgATF3, 100 nM	103
sgRNA knockout: sgATF3, 1000 nM	106
sgRNA knockout: sgATF4, 1 nM	85.3
sgRNA knockout: sgATF4, 10 nM	93
sgRNA knockout: sgATF4, 100 nM	101
sgRNA knockout: sgATF4, 1000 nM	76.2
sgRNA knockout: sgATF6, 1 nM	112
sgRNA knockout: sgATF6, 10 nM	85.23
sgRNA knockout: sgATF6, 100 nM	98.9
sgRNA knockout: sgATF6, 1000 nM	100
sgRNA knockout: sgATG7, 1 nM	94
sgRNA knockout: sgATG7, 10 nM	82.6
sgRNA knockout: sgATG7, 100 nM	92
sgRNA knockout: sgATG7, 1000 nM	98.8
sgRNA knockout: sgERN1, 1 nM	91.1
sgRNA knockout: sgERN1, 10 nM	77.8
sgRNA knockout: sgERN1, 100 nM	95.5
sgRNA knockout: sgERN1, 1000 nM	83.4
sgRNA knockout: sgHSF1, 1 nM	105
sgRNA knockout: sgHSF1, 10 nM	91.2
sgRNA knockout: sgHSF1, 100 nM	111
sgRNA knockout: sgHSF1, 1000 nM	106
sgRNA knockout: sgHSF2, 1 nM	102
sgRNA knockout: sgHSF2, 10 nM	83.3
sgRNA knockout: sgHSF2, 100 nM	81.7
sgRNA knockout: sgHSF2, 1000 nM	95.9
sgRNA knockout: sgKEAP1, 1 nM	73
sgRNA knockout: sgKEAP1, 10 nM	79.9
sgRNA knockout: sgKEAP1, 100 nM	93.2
sgRNA knockout: sgKEAP1, 1000 nM	97.9
sgRNA knockout: sgNFE2L2, 1 nM	96.2
sgRNA knockout: sgNFE2L2, 10 nM	95.5
sgRNA knockout: sgNFE2L2, 100 nM	84.3
sgRNA knockout: sgNFE2L2, 1000 nM	99.1
sgRNA knockout: sgSLC35F2, 1 nM	100
sgRNA knockout: sgSLC35F2, 10 nM	71.6
sgRNA knockout: sgSLC35F2, 100 nM	98.9
sgRNA knockout: sgSLC35F2, 1000 nM	79
sgRNA knockout: sgXBP1, 1 nM	81.8
sgRNA knockout: sgXBP1, 10 nM	60.4
sgRNA knockout: sgXBP1, 100 nM	96.5
sgRNA knockout: sgXBP1, 1000 nM	89.6

Cc1ccc(F)c(NC(=O)Nc2ccc(-c3cccc4[nH]nc(N)c34)cc2)c1 [Linifanib]
Details	relative cell number
sgRNA knockout: sgATF3, 10 nM	103
sgRNA knockout: sgATF3, 100 nM	99.4
sgRNA knockout: sgATF3, 1000 nM	110
sgRNA knockout: sgATF3, 10000 nM	39.6
sgRNA knockout: sgATF4, 10 nM	105
sgRNA knockout: sgATF4, 100 nM	99.8
sgRNA knockout: sgATF4, 1000 nM	112
sgRNA knockout: sgATF4, 10000 nM	22.4
sgRNA knockout: sgATF6, 10 nM	82.8
sgRNA knockout: sgATF6, 100 nM	118
sgRNA knockout: sgATF6, 1000 nM	112
sgRNA knockout: sgATF6, 10000 nM	39.5
sgRNA knockout: sgATG7, 10 nM	114
sgRNA knockout: sgATG7, 100 nM	96.5
sgRNA knockout: sgATG7, 1000 nM	85.8
sgRNA knockout: sgATG7, 10000 nM	36.05
sgRNA knockout: sgERN1, 10 nM	111
sgRNA knockout: sgERN1, 100 nM	111
sgRNA knockout: sgERN1, 1000 nM	109
sgRNA knockout: sgERN1, 10000 nM	41.8
sgRNA knockout: sgHSF1, 10 nM	96.7
sgRNA knockout: sgHSF1, 100 nM	79
sgRNA knockout: sgHSF1, 1000 nM	117
sgRNA knockout: sgHSF1, 10000 nM	41.7
sgRNA knockout: sgHSF2, 10 nM	84.8
sgRNA knockout: sgHSF2, 100 nM	91.3
sgRNA knockout: sgHSF2, 1000 nM	99.4
sgRNA knockout: sgHSF2, 10000 nM	28.4
sgRNA knockout: sgKEAP1, 10 nM	73
sgRNA knockout: sgKEAP1, 100 nM	86.3
sgRNA knockout: sgKEAP1, 1000 nM	106
sgRNA knockout: sgKEAP1, 10000 nM	43.2
sgRNA knockout: sgNFE2L2, 10 nM	87.4
sgRNA knockout: sgNFE2L2, 100 nM	90.7
sgRNA knockout: sgNFE2L2, 1000 nM	101
sgRNA knockout: sgNFE2L2, 10000 nM	35.1
sgRNA knockout: sgSLC35F2, 10 nM	85.2
sgRNA knockout: sgSLC35F2, 100 nM	79.1
sgRNA knockout: sgSLC35F2, 1000 nM	126
sgRNA knockout: sgSLC35F2, 10000 nM	41.4
sgRNA knockout: sgXBP1, 10 nM	97.7
sgRNA knockout: sgXBP1, 100 nM	106
sgRNA knockout: sgXBP1, 1000 nM	112
sgRNA knockout: sgXBP1, 10000 nM	34.3
